Measurements reported in PubChem BioAssay AID1159578 (Peter MacCallum Cancer Centre, 2015)
The whole screen tested about 18,000 reagents; shown is a random part of them. About 1,030 of them (5.7%) were called active. 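Inactive calls also include pools with fewer than 3300 nuclei, whose migration was not assessed.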 Raw values are not corrected between plates. Not all columns of the deposit are shown.

- Assay: 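Genome-wide hunt for genes controlling movement of lymphatic endothelial cells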 (primary screen)
- Cell system: human lymphatic endothelial cells
- Knock-down reagent: siRNA pool against human genes, 40 nM
- Timing: 48 h after transfection
- Measured: 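High-content imaging of dye-stained cells in a scratch assay measures filled wound area and nuclei per well; duplicate means given as ratio to mock and robust z-score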
- Scale: migration robust z-score: higher = faster migration into the scratch; nuclei per well: higher = more cells in the well
- Call rule: 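Pools averaging fewer than 3300 nuclei are never called; remaining pools count as changed when migration robust z lies outside -2 to 2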
- Meaning of the calls: active = migration changed; inactive = no migration change, or too few cells

gene symbol	migration robust z-score	migration class with cell-count check	nuclei per well, duplicate mean	activity call
STAG3L1 (STAG3 cohesin complex component like 1 (pseudogene))	0.07	migration z between -2 and 2; enough cells	5376	inactive
ANKS4B (ankyrin repeat and sterile alpha motif domain containing 4B)	0.9	migration z between -2 and 2; enough cells	7174	inactive
NAGK (N-acetylglucosamine kinase)	-0.1	migration z between -2 and 2; enough cells	5620	inactive
EXOC4 (exocyst complex component 4)	0.48	migration z between -2 and 2; enough cells	6680	inactive
DENND2C (DENN domain containing 2C)	0.29	migration z between -2 and 2; enough cells	6363	inactive
NMT1 (N-myristoyltransferase 1)	-0.02	migration z between -2 and 2; enough cells	8389	inactive
ZNF835 (zinc finger protein 835)	-1.27	migration z between -2 and 2; enough cells	4174	inactive
TCTN1 (tectonic family member 1)	0.56	migration z between -2 and 2; enough cells	5028	inactive
FGF5 (fibroblast growth factor 5)	0.16	migration z between -2 and 2; enough cells	5337	inactive
OR1J2 (olfactory receptor family 1 subfamily J member 2)	-0.1	migration z between -2 and 2; enough cells	5712	inactive
ZBED8 (zinc finger BED-type containing 8)	0.38	migration z between -2 and 2; enough cells	5318	inactive
EYA1 (EYA transcriptional coactivator and phosphatase 1)	0.46	migration z between -2 and 2; enough cells	5576	inactive
AVPR1B (arginine vasopressin receptor 1B)	-1.35	migration z between -2 and 2; enough cells	5818	inactive
UBXN11 (UBX domain protein 11)	0.28	migration z between -2 and 2; enough cells	4761	inactive
MAP2K7 (mitogen-activated protein kinase kinase 7)	-1.82	migration z between -2 and 2; enough cells	3643	inactive
CRTAP (cartilage associated protein)	0.66	migration z between -2 and 2; enough cells	5514	inactive
PRB1 (proline rich protein BstNI subfamily 1)	1.5	migration z between -2 and 2; enough cells	5617	inactive
CCDC3 (coiled-coil domain containing 3)	0.34	migration z between -2 and 2; enough cells	5634	inactive
WDR45B (WD repeat domain 45B)	1.47	migration z between -2 and 2; enough cells	6689	inactive
OR5AR1 (olfactory receptor family 5 subfamily AR member 1)	-0.68	migration z between -2 and 2; enough cells	5446	inactive
KRT13 (keratin 13)	-3.66	migration z below -2; enough cells	4020	active
CD207 (CD207 molecule)	-1.34	migration z between -2 and 2; enough cells	4968	inactive
TMEM86A (transmembrane protein 86A)	-0.16	migration z between -2 and 2; enough cells	6748	inactive
IGSF9 (immunoglobulin superfamily member 9)	-0.76	migration z between -2 and 2; enough cells	5801	inactive
OR8K3	2.79	migration z above 2; enough cells	6318	active
ATP5PO (ATP synthase peripheral stalk subunit OSCP)	-0.68	migration z between -2 and 2; enough cells	5300	inactive
AP2B1 (adaptor related protein complex 2 subunit beta 1)	-3.25	migration z below -2; enough cells	5264	active
KLF12 (KLF transcription factor 12)	-0.93	migration z between -2 and 2; enough cells	5380	inactive
REXO2 (RNA exonuclease 2)	-0.68	migration z between -2 and 2; enough cells	6730	inactive
ANXA8 (annexin A8)	2.62	migration z above 2; enough cells	6126	active
RARS2 (arginyl-tRNA synthetase 2, mitochondrial)	0.39	migration z between -2 and 2; enough cells	4168	inactive
ZDHHC8 (zDHHC palmitoyltransferase 8)	0.3	migration z between -2 and 2; enough cells	6280	inactive
C19orf44 (chromosome 19 open reading frame 44)	0.4	migration z between -2 and 2; enough cells	5886	inactive
JOSD2 (Josephin domain containing 2)	-0.12	migration z between -2 and 2; enough cells	5976	inactive
ZNF623 (zinc finger protein 623)	0.08	migration z between -2 and 2; enough cells	6442	inactive
KCTD9 (potassium channel tetramerization domain containing 9)	-1.84	migration z between -2 and 2; enough cells	5178	inactive
INAVA (innate immunity activator)	2.5	migration z above 2; enough cells	5390	active
KPNA3 (karyopherin subunit alpha 3)	-0.39	migration z between -2 and 2; enough cells	4696	inactive
ULBP2 (UL16 binding protein 2)	-0.34	migration z between -2 and 2; enough cells	5968	inactive
PPP1R12C (protein phosphatase 1 regulatory subunit 12C)	-0.9	migration z between -2 and 2; enough cells	5318	inactive
CELA1 (chymotrypsin like elastase 1)	-1.3	migration z between -2 and 2; enough cells	5539	inactive
CTH (cystathionine gamma-lyase)	-0.16	migration z between -2 and 2; enough cells	6501	inactive
SLAMF9 (SLAM family member 9)	0	migration z between -2 and 2; enough cells	4654	inactive
ZNF763 (zinc finger protein 763)	-1.52	migration z between -2 and 2; enough cells	5653	inactive
ZC2HC1A (zinc finger C2HC-type containing 1A)	-0.02	migration z between -2 and 2; enough cells	4782	inactive
DCTN6 (dynactin subunit 6)	-2.31	migration z below -2; enough cells	5334	active
BABAM2 (BRISC and BRCA1 A complex member 2)	-2.45	under 3300 nuclei; migration not judged	3231	inactive
SACK1B (scaffolding CK1 anchoring protein B)	1.66	migration z between -2 and 2; enough cells	6057	inactive
SKP1 (S-phase kinase associated protein 1)	1.2	migration z between -2 and 2; enough cells	6036	inactive
ACBD5 (acyl-CoA binding domain containing 5)	0.08	migration z between -2 and 2; enough cells	6346	inactive
TBL1XR1 (TBL1X/Y related 1)	-0.5	migration z between -2 and 2; enough cells	5114	inactive
RESF1 (retroelement silencing factor 1)	0.5	migration z between -2 and 2; enough cells	6521	inactive
ELP1 (elongator acetyltransferase complex subunit 1)	0.24	migration z between -2 and 2; enough cells	5536	inactive
FOXR2 (forkhead box R2)	0.44	migration z between -2 and 2; enough cells	5526	inactive
EFHC2 (EF-hand domain containing 2)	-2.66	migration z below -2; enough cells	5431	active
TSPAN10 (tetraspanin 10)	-0.45	migration z between -2 and 2; enough cells	6430	inactive
SSX1 (SSX family member 1)	0.42	migration z between -2 and 2; enough cells	4660	inactive

Reagents listed above with an active call, once more:
gene symbol	migration robust z-score	migration class with cell-count check	nuclei per well, duplicate mean	activity call
KRT13 (keratin 13)	-3.66	migration z below -2; enough cells	4020	active
OR8K3	2.79	migration z above 2; enough cells	6318	active
AP2B1 (adaptor related protein complex 2 subunit beta 1)	-3.25	migration z below -2; enough cells	5264	active
ANXA8 (annexin A8)	2.62	migration z above 2; enough cells	6126	active
INAVA (innate immunity activator)	2.5	migration z above 2; enough cells	5390	active
DCTN6 (dynactin subunit 6)	-2.31	migration z below -2; enough cells	5334	active
EFHC2 (EF-hand domain containing 2)	-2.66	migration z below -2; enough cells	5431	active
